Results on eleven substances are retold here after patent US8106017B2 (Caregen Co., Ltd., priority 2005, dated 2012).

The nature of series [1]: general procedure: Fmoc solid-phase peptide synthesis; chloro trityl chloride resin (CTL resin, Nova Biochem 01-64-0021); Fmoc-Rink amide resin (Nova Biochem 01-64-0013); HoBt/Bop/DIEA. The settings on record: whole synthesis; for isolated yield: final yield; for isolated yield / final HPLC purity / crude yield: scale of the general procedure 1 mmole; for final HPLC purity: high performance liquid chromatography.

Series [2] in a line: general procedure: Fmoc solid-phase peptide synthesis; CTL resin; HoBt/Bop/DIEA. The following applies: whole synthesis; for crude yield: scale of the general procedure 1 mmole.
Series [3] in a line: general procedure: Fmoc solid-phase peptide synthesis; Rink amide resin; HoBt/Bop/DIEA. The settings on record: whole synthesis.

The star is where a group is joined. Fmoc = O=C(OCC1c2ccccc2-c2ccccc21)*; Palmitoyl = CCCCCCCCCCCCCCCC(=O)*; For = O=C*

For the substance Ac-KLKKTETQ-NH2, in series [1], the crude mass came to 0.87 g, the isolated mass is 0.72 g, the isolated yield came out at 70.9% and the “final HPLC purity” value amounted to 96%. The crude yield in series [1] came to 85.6%.

In series [2], Ac-KLKKTETQ-OH registered a crude mass of 0.93 g and a crude yield of 91.4%. Moreover, in series [1], the isolated mass was determined as 0.72 g, the isolated yield was determined as 70.9% and the “final HPLC purity” value was determined as 96%.

With Fmoc-KLKKTETQ-NH2, the crude mass in series [3] stood at 0.98 g. In series [3] (scale of the general procedure 1 mmole), the crude yield is reported as 81.9%.

In series [2], Fmoc-KLKKTETQ-OH showed a crude mass of 1.1 g and a crude yield of 91.9%.

In series [1], For-KLKKTETQ-NH2 showed a crude mass of 0.89 g and a crude yield of 88.8%.

Regarding For-KLKKTETQ-OH, in series [1], the crude mass is recorded as 0.88 g and the crude yield is 87.7%.

“Myristyl-Lys-Leu-Lys-Lys-Thr-Glu-Thr-Gln-NH2”: in series [1], the crude mass is reported as 0.98 g and the crude yield came to 81.6%.

For Palmitoyl-KLKKTETQ-NH2, the crude mass in series [1] came out at 1.3 g.

In turn, Palmitoyl-KLKKTETQ-OH showed a crude mass in series [1] of 1.4 g.

In series [1], “Stearyl-Lys-Leu-Lys-Lys-Thr-Glu-Thr-Gln-NH2” had a crude mass of 1.02 g and a crude yield of 81.2%.

Turning to “Stearyl-Lys-Leu-Lys-Lys-Thr-Glu-Thr-Gln-OH”, in series [1], the crude mass amounted to 1.1 g and the crude yield is 87.5%.
